In patent publication US20130102838A1, “Oocyte Spindle-Associated Factors Improve Somatic Cell Cloning” (WORCESTER POLYTECHNIC INSTITUTE, priority 2007, published 2013):
At least one structure is not confirmed: it was looked up by name or label, or the drawing left a doubt.

By UniProt entry, the sequences of proteins in these tests, tags left out.
UniProt O70126, whole entry: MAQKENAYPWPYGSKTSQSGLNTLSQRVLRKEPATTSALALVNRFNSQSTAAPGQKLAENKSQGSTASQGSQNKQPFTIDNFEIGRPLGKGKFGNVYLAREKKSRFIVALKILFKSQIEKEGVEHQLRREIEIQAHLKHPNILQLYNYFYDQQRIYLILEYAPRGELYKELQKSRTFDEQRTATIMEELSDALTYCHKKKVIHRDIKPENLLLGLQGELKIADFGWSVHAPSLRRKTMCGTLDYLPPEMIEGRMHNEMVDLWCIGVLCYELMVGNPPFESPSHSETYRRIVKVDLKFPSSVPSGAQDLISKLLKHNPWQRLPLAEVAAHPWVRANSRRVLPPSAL

Columns and labels:
mouse oocytes = test: Hesperadin treatment of mouse oocytes during Meiosis II, immunofluorescence for tubulin and pH3; type: cell-based; details: 250 nM
Aurora B = target: T1, Aurora B (Mus musculus, UniProt O70126); test: Aurora B kinase activity in oocytes (pH3 marker) under Hesperadin; type: cell-based; details: 250 nM
T1 construct: Oocytes were collected from preovulatory Graafian follicles of stimulated CF-1 mice at 10 h post-hCG; endogenous in cells; host or cells: CF-1 mouse oocytes

CCS(=O)(=O)Nc1ccc2c(c1)/C(=C(/Nc1ccc(CN3CCCCC3)cc1)c1ccccc1)C(=O)N2 [Hesperadin]
observed phenotype (mouse oocytes; FIGS. 42-44): spindle defects by Metaphase II, failure of karyokinesis with lack of 2nd polar body formation and progression of the cell cycle
oocyte morphology (spindle, chromatids) at MII (mouse oocytes; cultured 6 h): disorganized spindles and scattered chromatids
extrusion of the second polar body (mouse oocytes; cultured 10 h): had not occurred
phenotype following SrCl2 activation and further culture (mouse oocytes; cultured 10 h): extensive disruption of the microtubule organization
Aurora B inhibition (Aurora B; FIGS. 42-44): sufficiently inhibited
pH3 staining (marker of AurB kinase activity) (Aurora B; cultured 6 h): complete lack of pH3 staining
